Amino acid sequences for entries named in this document (tags omitted). A change or cut given only in a name is not applied to a line headed by its entry. Residues count along the entry.
UniProt P02769, 25-607: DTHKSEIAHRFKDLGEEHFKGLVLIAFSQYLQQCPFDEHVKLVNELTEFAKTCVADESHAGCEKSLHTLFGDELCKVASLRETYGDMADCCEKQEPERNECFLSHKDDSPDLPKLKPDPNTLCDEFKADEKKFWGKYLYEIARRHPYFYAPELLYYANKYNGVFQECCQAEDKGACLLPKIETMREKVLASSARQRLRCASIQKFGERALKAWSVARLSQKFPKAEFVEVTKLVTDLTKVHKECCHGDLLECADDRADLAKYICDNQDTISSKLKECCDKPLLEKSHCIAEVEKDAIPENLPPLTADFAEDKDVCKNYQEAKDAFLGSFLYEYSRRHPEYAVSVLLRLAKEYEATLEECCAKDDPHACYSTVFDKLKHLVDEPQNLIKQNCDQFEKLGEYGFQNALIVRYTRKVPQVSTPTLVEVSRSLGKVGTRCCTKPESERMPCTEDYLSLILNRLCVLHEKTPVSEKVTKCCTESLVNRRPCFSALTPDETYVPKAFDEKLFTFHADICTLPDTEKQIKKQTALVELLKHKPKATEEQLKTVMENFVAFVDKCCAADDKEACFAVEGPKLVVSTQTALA
UniProt P15692: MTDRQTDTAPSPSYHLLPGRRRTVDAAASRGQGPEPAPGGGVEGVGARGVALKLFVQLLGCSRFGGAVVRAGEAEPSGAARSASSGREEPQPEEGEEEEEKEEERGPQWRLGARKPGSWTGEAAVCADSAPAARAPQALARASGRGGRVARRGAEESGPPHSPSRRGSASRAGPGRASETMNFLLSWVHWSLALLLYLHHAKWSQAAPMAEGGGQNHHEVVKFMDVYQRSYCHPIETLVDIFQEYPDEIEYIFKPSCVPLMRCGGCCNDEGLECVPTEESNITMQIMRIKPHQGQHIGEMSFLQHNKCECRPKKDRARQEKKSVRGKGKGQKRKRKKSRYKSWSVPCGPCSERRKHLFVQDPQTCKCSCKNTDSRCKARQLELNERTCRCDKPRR

In publication PMC6839512:

What was measured:
[1] = test system: epidermal growth factor receptor (EGFR); experiment: on-chip sandwich RCA fluorescence; conditions: sandwich with second aptamer N2; 5'-NH2; on-chip: PBS washes, 10% FBS in PBS block, RCA in phi29 buffer (50 mM Tris-HCl, 10 mM MgCl2, 10 mM (NH4)2SO4, pH 7.5); commercial protein; single-stranded DNA
insulin = experiment: on-chip sandwich RCA fluorescence; conditions: sandwich with second aptamer N2; 5'-NH2; on-chip: PBS washes, 10% FBS in PBS block, RCA in phi29 buffer (50 mM Tris-HCl, 10 mM MgCl2, 10 mM (NH4)2SO4, pH 7.5); commercial protein; single-stranded DNA
[2] = biological target: human serum albumin (HSA) (human) (UniProt P02768); experiment: on-chip sandwich RCA fluorescence; conditions: sandwich with second aptamer N2; 5'-NH2; on-chip: PBS washes, 10% FBS in PBS block, RCA in phi29 buffer (50 mM Tris-HCl, 10 mM MgCl2, 10 mM (NH4)2SO4, pH 7.5); commercial protein; single-stranded DNA
[3] = biological target: bovine serum albumin (BSA) (bovine) (UniProt P02769); experiment: on-chip sandwich RCA fluorescence; conditions: sandwich with second aptamer N2; 5'-NH2; on-chip: PBS washes, 10% FBS in PBS block, RCA in phi29 buffer (50 mM Tris-HCl, 10 mM MgCl2, 10 mM (NH4)2SO4, pH 7.5); commercial protein; single-stranded DNA
VEGF (human) = VEGF (human) (UniProt P15692); experiment: BLI; conditions: BLI buffer, pH and temperature not stated, commercial protein, single-stranded DNA

| Sequence | binding result [1] | binding result (insulin) | binding result [2] | binding result [3] | binding result (VEGF (human); aptamer immobilized on AR2G sensor, 5'-NH2) | binding result (VEGF (human); VEGF pre-captured on immobilized first aptamer (sandwich), 5'-phosphate) |
| --- | --- | --- | --- | --- | --- | --- |
| TTTTTTTTGTGGGGGTGGACGGGCCGGGTAGA [first DNA aptamer for VEGF (capture)] | binds more weakly | binds more weakly | binds more weakly | binds more weakly | binds | – |
| CAATTGGGCCCGTCCGTATGGTGGGTAAAAAAAAAAAAAAACACAGCTGAGGATAGGACAT [second DNA aptamer ligation template for VEGF] | – | – | – | – | – | binds |

Construct, isoform or probe ends are uncertain for at least one entry. For part of these data: The comparison behind a weaker result is the experiment's own reference, which may not be listed here. For part of these data: At least one verdict rests on a figure or table, not on a statement of the authors.
